In the supplement of paper PMC10849652:
The other results are listed elsewhere or left out.

Amino acid sequences for entries named in this document (tags omitted). A change or cut given only in a name is not applied to a line headed by its entry.
UniProt Q9Y623, whole entry, looked up: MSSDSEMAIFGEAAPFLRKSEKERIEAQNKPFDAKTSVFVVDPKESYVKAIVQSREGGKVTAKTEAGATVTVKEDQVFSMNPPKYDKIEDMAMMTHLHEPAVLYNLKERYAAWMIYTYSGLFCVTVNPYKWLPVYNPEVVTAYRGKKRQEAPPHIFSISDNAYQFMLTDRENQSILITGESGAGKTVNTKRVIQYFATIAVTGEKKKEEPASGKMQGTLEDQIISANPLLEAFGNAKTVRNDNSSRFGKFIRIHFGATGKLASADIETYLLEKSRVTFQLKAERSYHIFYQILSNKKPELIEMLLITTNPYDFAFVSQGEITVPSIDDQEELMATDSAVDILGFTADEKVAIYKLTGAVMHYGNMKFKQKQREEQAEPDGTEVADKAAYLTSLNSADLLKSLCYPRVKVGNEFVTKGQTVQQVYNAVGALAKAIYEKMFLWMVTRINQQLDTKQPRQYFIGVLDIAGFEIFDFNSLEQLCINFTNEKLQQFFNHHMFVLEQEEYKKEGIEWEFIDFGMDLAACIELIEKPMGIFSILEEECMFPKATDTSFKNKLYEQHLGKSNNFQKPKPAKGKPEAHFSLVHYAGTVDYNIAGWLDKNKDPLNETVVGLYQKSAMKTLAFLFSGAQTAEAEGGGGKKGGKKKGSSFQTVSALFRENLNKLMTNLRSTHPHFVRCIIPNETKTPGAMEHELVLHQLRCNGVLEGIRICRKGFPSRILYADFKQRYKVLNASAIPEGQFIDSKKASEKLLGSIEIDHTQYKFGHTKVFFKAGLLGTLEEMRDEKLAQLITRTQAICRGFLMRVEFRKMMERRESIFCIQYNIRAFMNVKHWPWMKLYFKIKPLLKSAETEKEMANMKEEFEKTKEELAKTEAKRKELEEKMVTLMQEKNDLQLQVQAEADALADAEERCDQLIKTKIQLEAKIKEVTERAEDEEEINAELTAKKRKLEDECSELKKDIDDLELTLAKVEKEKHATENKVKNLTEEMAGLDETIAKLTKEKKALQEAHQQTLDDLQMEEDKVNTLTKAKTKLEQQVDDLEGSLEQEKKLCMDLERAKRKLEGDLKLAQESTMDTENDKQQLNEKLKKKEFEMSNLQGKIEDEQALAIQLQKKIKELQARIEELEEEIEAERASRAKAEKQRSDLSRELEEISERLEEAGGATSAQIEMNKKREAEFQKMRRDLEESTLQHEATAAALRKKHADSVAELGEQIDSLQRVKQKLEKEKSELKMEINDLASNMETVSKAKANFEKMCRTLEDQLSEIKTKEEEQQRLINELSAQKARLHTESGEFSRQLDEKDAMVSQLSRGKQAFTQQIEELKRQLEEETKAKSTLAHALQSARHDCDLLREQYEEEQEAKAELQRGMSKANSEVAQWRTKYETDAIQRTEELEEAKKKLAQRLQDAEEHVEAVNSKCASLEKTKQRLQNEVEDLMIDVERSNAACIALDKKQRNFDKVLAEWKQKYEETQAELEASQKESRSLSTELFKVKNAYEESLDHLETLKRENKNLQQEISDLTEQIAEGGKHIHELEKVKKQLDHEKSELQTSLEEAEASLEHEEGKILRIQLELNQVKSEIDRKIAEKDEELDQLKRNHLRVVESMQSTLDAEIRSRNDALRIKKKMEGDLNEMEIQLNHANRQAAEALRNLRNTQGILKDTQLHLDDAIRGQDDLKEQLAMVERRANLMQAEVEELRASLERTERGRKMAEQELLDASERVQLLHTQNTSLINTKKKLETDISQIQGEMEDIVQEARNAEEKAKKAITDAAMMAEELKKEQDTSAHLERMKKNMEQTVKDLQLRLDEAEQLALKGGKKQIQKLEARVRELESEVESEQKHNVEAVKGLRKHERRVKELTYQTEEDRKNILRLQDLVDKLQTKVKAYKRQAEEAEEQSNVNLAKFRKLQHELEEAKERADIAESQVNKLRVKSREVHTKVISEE
UniProt P03886, whole entry, looked up: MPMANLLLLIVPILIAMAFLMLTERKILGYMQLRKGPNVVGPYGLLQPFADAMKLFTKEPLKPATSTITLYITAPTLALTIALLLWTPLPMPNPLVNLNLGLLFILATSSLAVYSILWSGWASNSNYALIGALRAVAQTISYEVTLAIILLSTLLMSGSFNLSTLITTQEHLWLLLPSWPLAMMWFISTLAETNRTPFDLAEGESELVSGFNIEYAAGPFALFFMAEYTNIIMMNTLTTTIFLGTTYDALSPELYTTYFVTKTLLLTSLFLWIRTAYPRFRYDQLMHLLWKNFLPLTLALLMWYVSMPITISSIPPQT
UniProt Q6P1R3: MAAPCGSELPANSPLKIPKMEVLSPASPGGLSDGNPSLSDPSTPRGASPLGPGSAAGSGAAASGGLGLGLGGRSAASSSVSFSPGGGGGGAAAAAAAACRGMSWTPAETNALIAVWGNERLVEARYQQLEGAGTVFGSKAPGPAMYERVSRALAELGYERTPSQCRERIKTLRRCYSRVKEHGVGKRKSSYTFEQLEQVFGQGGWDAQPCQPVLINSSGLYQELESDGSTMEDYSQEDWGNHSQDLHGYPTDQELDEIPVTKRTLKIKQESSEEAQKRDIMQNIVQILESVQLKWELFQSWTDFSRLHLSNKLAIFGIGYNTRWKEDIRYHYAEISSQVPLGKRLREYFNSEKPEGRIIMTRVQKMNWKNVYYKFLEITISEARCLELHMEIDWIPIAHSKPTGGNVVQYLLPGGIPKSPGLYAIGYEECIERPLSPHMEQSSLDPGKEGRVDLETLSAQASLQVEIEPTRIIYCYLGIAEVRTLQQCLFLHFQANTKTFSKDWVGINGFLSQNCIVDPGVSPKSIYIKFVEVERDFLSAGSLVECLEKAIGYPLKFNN
UniProt P03897, whole entry, looked up: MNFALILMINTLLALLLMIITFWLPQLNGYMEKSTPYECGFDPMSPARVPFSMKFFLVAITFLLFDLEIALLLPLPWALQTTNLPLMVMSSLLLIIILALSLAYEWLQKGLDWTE
UniProt O75570: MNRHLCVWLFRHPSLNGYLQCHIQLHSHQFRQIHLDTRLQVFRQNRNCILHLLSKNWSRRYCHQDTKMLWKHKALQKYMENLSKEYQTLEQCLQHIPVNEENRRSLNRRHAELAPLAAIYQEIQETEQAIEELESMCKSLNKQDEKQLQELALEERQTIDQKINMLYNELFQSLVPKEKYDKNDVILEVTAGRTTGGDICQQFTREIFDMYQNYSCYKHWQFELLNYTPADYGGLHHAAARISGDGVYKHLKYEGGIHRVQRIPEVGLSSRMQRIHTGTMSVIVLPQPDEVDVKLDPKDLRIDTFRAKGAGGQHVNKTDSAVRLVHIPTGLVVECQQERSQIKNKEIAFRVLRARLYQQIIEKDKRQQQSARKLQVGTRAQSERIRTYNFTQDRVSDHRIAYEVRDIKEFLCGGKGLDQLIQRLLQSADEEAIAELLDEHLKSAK
UniProt G3V1V0: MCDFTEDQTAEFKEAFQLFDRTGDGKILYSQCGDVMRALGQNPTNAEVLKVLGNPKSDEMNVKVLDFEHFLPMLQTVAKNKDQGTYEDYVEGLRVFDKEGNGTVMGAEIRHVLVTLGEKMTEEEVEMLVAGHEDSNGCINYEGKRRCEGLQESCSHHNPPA
UniProt Q8IUG5: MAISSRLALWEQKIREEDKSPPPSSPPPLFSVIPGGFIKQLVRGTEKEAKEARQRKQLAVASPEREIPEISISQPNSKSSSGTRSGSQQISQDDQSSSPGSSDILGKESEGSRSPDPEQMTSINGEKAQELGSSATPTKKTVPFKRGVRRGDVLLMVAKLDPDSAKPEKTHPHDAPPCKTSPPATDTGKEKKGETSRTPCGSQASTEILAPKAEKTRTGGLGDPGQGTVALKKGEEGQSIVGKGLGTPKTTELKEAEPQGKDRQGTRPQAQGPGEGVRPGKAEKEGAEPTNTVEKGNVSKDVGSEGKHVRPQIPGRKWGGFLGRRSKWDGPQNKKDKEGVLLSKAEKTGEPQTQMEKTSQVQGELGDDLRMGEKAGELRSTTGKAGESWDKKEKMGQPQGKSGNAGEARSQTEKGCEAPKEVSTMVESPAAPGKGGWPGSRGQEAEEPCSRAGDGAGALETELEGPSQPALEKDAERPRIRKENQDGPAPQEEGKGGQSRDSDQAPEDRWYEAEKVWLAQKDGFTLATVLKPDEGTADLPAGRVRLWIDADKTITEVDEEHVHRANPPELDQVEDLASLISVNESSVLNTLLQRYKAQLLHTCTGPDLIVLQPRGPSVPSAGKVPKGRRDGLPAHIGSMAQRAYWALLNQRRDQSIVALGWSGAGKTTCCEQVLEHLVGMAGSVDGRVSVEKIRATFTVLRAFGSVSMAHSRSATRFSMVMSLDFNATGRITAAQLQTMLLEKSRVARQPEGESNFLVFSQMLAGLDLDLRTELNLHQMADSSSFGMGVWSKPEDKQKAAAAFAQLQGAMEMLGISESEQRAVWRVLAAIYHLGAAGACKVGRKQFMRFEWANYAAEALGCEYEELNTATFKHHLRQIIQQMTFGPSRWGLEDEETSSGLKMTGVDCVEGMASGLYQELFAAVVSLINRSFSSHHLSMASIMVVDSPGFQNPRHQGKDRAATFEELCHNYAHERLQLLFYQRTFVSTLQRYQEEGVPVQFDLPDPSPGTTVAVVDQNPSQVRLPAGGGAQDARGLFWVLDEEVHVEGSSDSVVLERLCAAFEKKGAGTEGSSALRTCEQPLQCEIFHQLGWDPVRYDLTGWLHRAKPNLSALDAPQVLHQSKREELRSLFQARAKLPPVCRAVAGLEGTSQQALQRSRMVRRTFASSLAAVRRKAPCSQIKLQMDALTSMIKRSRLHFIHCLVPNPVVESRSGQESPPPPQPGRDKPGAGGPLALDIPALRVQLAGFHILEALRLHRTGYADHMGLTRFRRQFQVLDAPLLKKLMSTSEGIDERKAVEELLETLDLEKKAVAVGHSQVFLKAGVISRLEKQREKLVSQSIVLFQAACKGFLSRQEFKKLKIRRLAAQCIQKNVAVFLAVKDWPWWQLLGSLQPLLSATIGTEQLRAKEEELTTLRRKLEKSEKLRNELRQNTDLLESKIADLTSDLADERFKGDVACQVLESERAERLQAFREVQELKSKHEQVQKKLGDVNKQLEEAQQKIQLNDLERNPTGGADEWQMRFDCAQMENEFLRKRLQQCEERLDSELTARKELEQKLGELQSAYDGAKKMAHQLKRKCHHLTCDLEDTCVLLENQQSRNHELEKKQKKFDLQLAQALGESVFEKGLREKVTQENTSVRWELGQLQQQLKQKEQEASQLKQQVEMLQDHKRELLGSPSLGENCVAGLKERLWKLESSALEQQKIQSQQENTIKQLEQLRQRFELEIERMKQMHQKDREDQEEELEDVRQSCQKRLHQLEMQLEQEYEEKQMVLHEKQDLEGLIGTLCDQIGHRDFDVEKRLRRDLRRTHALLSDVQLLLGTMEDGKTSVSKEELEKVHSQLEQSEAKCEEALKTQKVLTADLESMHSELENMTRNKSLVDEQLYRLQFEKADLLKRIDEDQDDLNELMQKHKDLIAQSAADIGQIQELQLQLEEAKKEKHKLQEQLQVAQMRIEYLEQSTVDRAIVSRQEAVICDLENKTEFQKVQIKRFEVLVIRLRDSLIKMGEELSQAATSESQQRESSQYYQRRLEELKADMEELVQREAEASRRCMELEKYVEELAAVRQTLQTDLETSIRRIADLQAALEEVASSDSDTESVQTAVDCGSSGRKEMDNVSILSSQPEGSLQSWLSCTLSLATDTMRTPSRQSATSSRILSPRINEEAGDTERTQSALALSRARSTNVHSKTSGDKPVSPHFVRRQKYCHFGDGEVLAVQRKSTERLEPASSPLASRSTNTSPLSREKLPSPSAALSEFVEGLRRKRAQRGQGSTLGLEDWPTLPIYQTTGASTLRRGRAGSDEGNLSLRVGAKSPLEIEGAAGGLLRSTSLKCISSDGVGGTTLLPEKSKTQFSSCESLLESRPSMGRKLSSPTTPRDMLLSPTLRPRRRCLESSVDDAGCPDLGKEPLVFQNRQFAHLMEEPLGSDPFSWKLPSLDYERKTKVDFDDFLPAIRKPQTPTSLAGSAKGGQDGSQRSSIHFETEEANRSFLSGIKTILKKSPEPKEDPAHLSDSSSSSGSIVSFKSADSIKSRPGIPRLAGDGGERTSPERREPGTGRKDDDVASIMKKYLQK
UniProt Q93083: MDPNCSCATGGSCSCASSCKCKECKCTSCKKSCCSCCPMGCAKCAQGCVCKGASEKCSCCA
UniProt Q6P444: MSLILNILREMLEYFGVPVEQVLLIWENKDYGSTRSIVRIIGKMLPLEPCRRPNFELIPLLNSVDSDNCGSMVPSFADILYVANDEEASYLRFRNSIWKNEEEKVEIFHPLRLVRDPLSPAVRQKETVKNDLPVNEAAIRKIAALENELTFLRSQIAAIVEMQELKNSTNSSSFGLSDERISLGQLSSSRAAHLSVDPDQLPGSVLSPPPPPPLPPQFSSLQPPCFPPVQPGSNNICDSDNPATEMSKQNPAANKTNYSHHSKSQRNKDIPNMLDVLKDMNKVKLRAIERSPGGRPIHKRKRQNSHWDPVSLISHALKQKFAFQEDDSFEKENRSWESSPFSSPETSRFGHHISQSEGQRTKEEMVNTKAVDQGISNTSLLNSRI

Tests used:
Experiment in all cases: log2 fold change, soluble protein after heating vs DMSO (PISA); higher = thermal stabilisation; K562 cells, 10 uM, 30 min; active = over 0.2 and 3.5 SD of the protein, either way, in both replicates (recomputed)
citarinostat = compound: O=C(CCCCCCNC(=O)c1cnc(N(c2ccccc2)c2ccccc2Cl)nc1)NO [citarinostat]
Method in brief: (§1)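 Thermal stability values are relative to control samples and come from duplicates. They are expressed as log2 fold changes. For measurement, K562 cells (2×10^6 cells/mL) received 10 μM compound for 30 min, and aliquots were heated for 3 min over 48°C-58°C, pooled, and extracted at 4°C in PBS with 0.5% NP-40. Soluble protein, the supernatant after 21,000xg for 90 min, was quantified by TMTpro 16plex LC-MS/MS with equalised channel sums.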

[1] = compound: c1cc(OCCN2CCCCC2)cc(-c2n[nH]c3ccc(-c4nnc[nH]4)cc23)c1
Method in brief: as §1

[2] = compound: Cc1cccc(CC(=O)N2CCc3c2ccc(-c2cn(C)c4ncnc(N)c24)c3F)n1
Method in brief: as §1

dasatinib = compound: Cc1nc(Nc2ncc(C(=O)Nc3c(C)cccc3Cl)s2)cc(N2CCN(CCO)CC2)n1 [dasatinib]
Method in brief: as §1

tipifarnib = compound: Cn1cncc1[C@@](N)(c1ccc(Cl)cc1)c1ccc2c(c1)c(-c1cccc(Cl)c1)cc(=O)n2C [tipifarnib]
Method in brief: as §1

[3] = compound: NC(=O)Nc1cc(-c2cccc(F)c2)sc1C(=O)N[C@H]1CCCNC1
Method in brief: as §1

entinostat = compound: Nc1ccccc1NC(=O)c1ccc(CNC(=O)OCc2cccnc2)cc1 [entinostat]
Method in brief: as §1

vorinostat = compound: O=C(CCCCCCC(=O)Nc1ccccc1)NO [vorinostat]
Method in brief: as §1

[4] = compound: O=C1NC(=O)C(c2cnc3ccccn23)=C1c1cn2c3c(cc(F)cc13)CN(C(=O)N1CCCCC1)CC2
Method in brief: as §1

bafetinib = compound: Cc1ccc(NC(=O)c2ccc(CN3CC[C@H](N(C)C)C3)c(C(F)(F)F)c2)cc1Nc1nccc(-c2cncnc2)n1 [bafetinib]
Method in brief: as §1

nilotinib = compound: Cc1cn(-c2cc(NC(=O)c3ccc(C)c(Nc4nccc(-c5cccnc5)n4)c3)cc(C(F)(F)F)c2)cn1 [nilotinib]
Method in brief: as §1

[5] = compound: Cc1nc(Nc2n[nH]c3c2CN(C(=O)N[C@H](CN(C)C)c2ccccc2)C3(C)C)c2sccc2n1
Method in brief: as §1

[6] = compound: Cc1ncc(-c2ccnc(Nc3ccc(S(C)(=O)=O)cc3)n2)n1C(C)C
Method in brief: as §1

mubritinib = compound: FC(F)(F)c1ccc(/C=C/c2nc(COc3ccc(CCCCn4ccnn4)cc3)co2)cc1 [mubritinib]
Method in brief: as §1

[7] = compound: NC(=O)c1cnc(N[C@@H]2CCCC[C@@H]2N)nc1Nc1cccc(-n2nccn2)c1
Method in brief: as §1

[8] = compound: NC1(c2ccc(-c3nc4ccn5c(=O)[nH]nc5c4cc3-c3ccccc3)cc2)CCC1
Method in brief: as §1

[9] = compound: NCC(=O)Nc1ccc(-n2nc(C(F)(F)F)cc2-c2ccc3c(ccc4ccccc43)c2)cc1
Method in brief: as §1

silmitasertib = compound: O=C(O)c1ccc2c(c1)nc(Nc1cccc(Cl)c1)c1ccncc12 [silmitasertib]
Method in brief: as §1

[10] = compound: Cn1cc(-c2ccc3c(c2)CCN3C(=O)Cc2cccc(C(F)(F)F)c2)c2c(N)ncnc21
Method in brief: as §1

[11] = compound: Cn1cc(-c2ccc3nnc(C(F)(F)c4ccc5ncccc5c4)n3n2)cn1
Method in brief: as §1

MYH4 (UniProt Q9Y623)
log2 fold change (citarinostat): inactive: -1.18
log2 fold change [1]: inactive: -1.41

MTA3 (UniProt Q9BTC8)
log2 fold change [2]: inactive: 0.086
log2 fold change (dasatinib): inactive: -0.01
log2 fold change (tipifarnib): inactive: 0.193
log2 fold change [3]: inactive: 0.066
log2 fold change (entinostat): inactive: 0
log2 fold change (vorinostat): inactive: 0.236
log2 fold change (citarinostat): inactive: 0.041
log2 fold change [4]: inactive: -0.164
log2 fold change [1]: inactive: 0.659

MTCH2 (UniProt E9PIE4)
log2 fold change (bafetinib): inactive: -0.128
log2 fold change (nilotinib): inactive: 0.017
log2 fold change [5]: inactive: -0.023
log2 fold change (dasatinib): inactive: 0.069
log2 fold change [6]: inactive: -0.005
log2 fold change (tipifarnib): inactive: -0.003
log2 fold change (mubritinib): inactive: 0
log2 fold change [3]: inactive: 0.02
log2 fold change [7]: inactive: -0.018
log2 fold change [8]: inactive: -0.05
log2 fold change [9]: inactive: -0.019
log2 fold change (entinostat): inactive: -0.066
log2 fold change (citarinostat): inactive: 0.019
log2 fold change (silmitasertib): inactive: 0.032
log2 fold change [4]: inactive: -0.012
log2 fold change [1]: inactive: -0.017

MT-ND1 (UniProt P03886)
log2 fold change (bafetinib): inactive: -0.199
log2 fold change (nilotinib): inactive: 0.102
log2 fold change [5]: inactive: -0.079
log2 fold change (dasatinib): inactive: -0.149
log2 fold change [6]: inactive: -0.061
log2 fold change [10]: inactive: 0.066
log2 fold change [11]: inactive: -0.036
log2 fold change (tipifarnib): active: 0.633
log2 fold change (mubritinib): inactive: 0.114
log2 fold change [3]: inactive: 0.166
log2 fold change [7]: inactive: 0.244
log2 fold change [8]: inactive: -0.004
log2 fold change [9]: inactive: 0.289
log2 fold change (entinostat): inactive: -0.051
log2 fold change (citarinostat): inactive: 0.05
log2 fold change (silmitasertib): inactive: 0.039
log2 fold change [4]: inactive: 0.1
log2 fold change [1]: inactive: -0.075

MYNN (UniProt Q9NPC7)
log2 fold change [11]: inactive: -0.203
log2 fold change [3]: inactive: -0.244
log2 fold change (entinostat): inactive: -0.569

MTURN (UniProt Q8N3F0)
log2 fold change (bafetinib): inactive: -0.006
log2 fold change (tipifarnib): inactive: 0.063
log2 fold change (mubritinib): inactive: 0.062
log2 fold change [8]: inactive: -0.083
log2 fold change [9]: inactive: 0.025
log2 fold change (silmitasertib): inactive: -0.025

MSRA (UniProt Q9UJ68)
log2 fold change (dasatinib): inactive: -0.223
log2 fold change (tipifarnib): inactive: -0.107

MSANTD2 (UniProt Q6P1R3)
log2 fold change (dasatinib): inactive: -0.042
log2 fold change [3]: inactive: -0.041
log2 fold change [9]: inactive: -0.065
log2 fold change (entinostat): inactive: -0.184
log2 fold change (citarinostat): inactive: -0.124
log2 fold change [4]: inactive: 0.004
log2 fold change [1]: inactive: 0.16

MT-ND3 (UniProt P03897)
log2 fold change (bafetinib): inactive: 0.229
log2 fold change (nilotinib): inactive: -0.021
log2 fold change [5]: inactive: 0.158
log2 fold change [6]: inactive: -0.04
log2 fold change [11]: inactive: 0.121

MXRA8 isoform 2 (UniProt Q9BRK3)
log2 fold change (bafetinib): inactive: -0.033
log2 fold change [10]: inactive: 0.01
log2 fold change [11]: inactive: -0.029
log2 fold change (mubritinib): inactive: 0.08
log2 fold change [3]: inactive: 0.105
log2 fold change [7]: inactive: -0.067
log2 fold change [8]: inactive: -0.162
log2 fold change [9]: inactive: -0.05
log2 fold change (entinostat): inactive: 0.022
log2 fold change (silmitasertib): inactive: 0.152
log2 fold change [4]: inactive: 0.103

MTRF1 (UniProt O75570)
log2 fold change [3]: inactive: 0.063
log2 fold change [7]: inactive: -0.105
log2 fold change (entinostat): inactive: 0.05

MT-ND6 (UniProt P03923)
log2 fold change (bafetinib): inactive: -0.106
log2 fold change (nilotinib): inactive: 0.094
log2 fold change [5]: inactive: -0.113
log2 fold change (dasatinib): inactive: 0.18
log2 fold change [6]: inactive: -0.097
log2 fold change [10]: inactive: -0.062
log2 fold change (mubritinib): inactive: -0.145
log2 fold change [3]: inactive: -0.068
log2 fold change [7]: inactive: -0.114
log2 fold change [8]: inactive: -0.064
log2 fold change [9]: inactive: -0.076
log2 fold change (entinostat): inactive: 0.045
log2 fold change (citarinostat): inactive: -0.011
log2 fold change (silmitasertib): inactive: -0.02
log2 fold change [1]: inactive: -0.083

MTSS1 isoform 5 (UniProt O43312)
log2 fold change (tipifarnib): inactive: -0.046
log2 fold change (mubritinib): inactive: -0.358
log2 fold change [7]: inactive: -0.094
log2 fold change [8]: inactive: 0.595
log2 fold change [9]: inactive: 0.018
log2 fold change (silmitasertib): inactive: -0.291

MYL6 (UniProt G3V1V0)
log2 fold change (bafetinib): inactive: -0.143
log2 fold change (dasatinib): inactive: -0.016
log2 fold change [10]: inactive: -0.046
log2 fold change [11]: inactive: 0.011
log2 fold change (mubritinib): inactive: 0.139
log2 fold change [3]: inactive: 0.138
log2 fold change [7]: inactive: -0.004
log2 fold change [8]: inactive: 0.306
log2 fold change [9]: inactive: -0.038
log2 fold change (entinostat): inactive: 0.052
log2 fold change (citarinostat): inactive: -0.018
log2 fold change (silmitasertib): inactive: 0.087
log2 fold change [1]: inactive: -0.06

MRPS36 (UniProt D6R941)
log2 fold change (nilotinib): inactive: -0.046
log2 fold change [5]: inactive: 0.237
log2 fold change [6]: inactive: 0.1
log2 fold change [3]: inactive: -0.332
log2 fold change (entinostat): inactive: 0.095
log2 fold change [4]: inactive: -0.174

MT-CO3 (UniProt P00414)
log2 fold change (dasatinib): inactive: -0.336
log2 fold change [10]: inactive: 0.005
log2 fold change [11]: inactive: -0.008
log2 fold change (tipifarnib): inactive: 0.03
log2 fold change (mubritinib): inactive: -0.122
log2 fold change [3]: inactive: -0.002
log2 fold change [7]: inactive: -0.049
log2 fold change [8]: inactive: -0.061
log2 fold change [9]: inactive: -0.119
log2 fold change (entinostat): inactive: -0.161
log2 fold change (silmitasertib): inactive: -0.114

MTIF2 (UniProt P46199)
log2 fold change [3]: inactive: -0.003
log2 fold change (entinostat): inactive: 0.119
log2 fold change [4]: inactive: -0.147

MYO18B isoform 3 (UniProt Q8IUG5)
log2 fold change (bafetinib): inactive: -0.041
log2 fold change (nilotinib): inactive: -0.089
log2 fold change [5]: inactive: -0.055
log2 fold change [6]: inactive: 0.03
log2 fold change [11]: inactive: 0.077
log2 fold change [3]: inactive: -0.475
log2 fold change [7]: inactive: -0.417
log2 fold change (entinostat): inactive: -0.103
log2 fold change (citarinostat): inactive: -0.196
log2 fold change [4]: inactive: -0.047
log2 fold change [1]: inactive: -0.238

MT1L (UniProt Q93083)
log2 fold change [2]: inactive: -0.159
log2 fold change (nilotinib): inactive: -0.151
log2 fold change [5]: inactive: -0.091
log2 fold change (dasatinib): inactive: 0.071
log2 fold change [6]: inactive: 0.169
log2 fold change [11]: inactive: -0.249
log2 fold change (tipifarnib): inactive: -0.03
log2 fold change (mubritinib): inactive: -0.157
log2 fold change [7]: inactive: -0.086
log2 fold change [8]: inactive: -0.012
log2 fold change (vorinostat): inactive: 0.236
log2 fold change (citarinostat): inactive: -0.04
log2 fold change (silmitasertib): inactive: 0.309
log2 fold change [1]: inactive: 0.234

MTFR2 (UniProt Q6P444)
log2 fold change (bafetinib): inactive: -0.037
log2 fold change (nilotinib): inactive: -0.125
log2 fold change [5]: inactive: -0.05
log2 fold change (dasatinib): inactive: -0.263
log2 fold change [6]: inactive: 0.057
log2 fold change [10]: inactive: -0.081
log2 fold change [11]: inactive: -0.087
log2 fold change (tipifarnib): inactive: -0.016
log2 fold change (mubritinib): inactive: 0.045
log2 fold change [3]: inactive: 0.026
log2 fold change [7]: inactive: 0.055
log2 fold change [8]: inactive: 0.051
log2 fold change [9]: inactive: 0.044
log2 fold change (entinostat): inactive: 0.045
log2 fold change (citarinostat): inactive: 0.076
log2 fold change (silmitasertib): inactive: -0.17
log2 fold change [4]: inactive: 0.189
log2 fold change [1]: inactive: -0.01

MVP (UniProt Q14764)
log2 fold change (citarinostat): inactive: -0.829
log2 fold change [1]: inactive: -0.857
